From BindingDB's records for doi:10.1016/j.bmc.2005.07.038 (Ohio State University, 2005)

Target: T1, Aromatase (Homo sapiens, UniProt P11511)
T1 sequence (P11511 whole entry): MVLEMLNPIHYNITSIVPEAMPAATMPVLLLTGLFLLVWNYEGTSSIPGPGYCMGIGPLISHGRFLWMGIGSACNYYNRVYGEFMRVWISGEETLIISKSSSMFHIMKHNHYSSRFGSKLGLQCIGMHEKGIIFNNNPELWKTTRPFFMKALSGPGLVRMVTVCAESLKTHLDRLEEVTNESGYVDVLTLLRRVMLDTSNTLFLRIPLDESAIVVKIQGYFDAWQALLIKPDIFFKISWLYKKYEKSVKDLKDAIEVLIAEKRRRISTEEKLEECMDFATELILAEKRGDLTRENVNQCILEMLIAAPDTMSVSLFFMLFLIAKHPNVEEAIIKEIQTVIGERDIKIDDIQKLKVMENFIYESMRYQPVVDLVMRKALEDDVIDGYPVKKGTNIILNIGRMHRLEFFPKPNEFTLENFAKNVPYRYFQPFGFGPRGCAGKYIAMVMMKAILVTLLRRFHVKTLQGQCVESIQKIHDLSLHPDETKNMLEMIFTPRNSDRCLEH
Conditions: pH 7; 37 °C

IC50: 79 nM
Ki: 39 nM
SMILES: O=c1c(-c2ccccc2)c(SCc2ccncc2)oc2cc(OCc3ccc(-c4ccccc4)cc3)ccc12 [3-phenyl-7-[(4-phenylphenyl)methoxy]-2-[(pyridin-4-ylmethyl)sulfanyl]-4H-chromen-4-one]
